Assay results as given in paper PMC11291266.
No constants are given. Whether binding was seen depends on the method and setting. Binding seen in cells or lysates may run through a third protein.

By UniProt entry, the sequences of proteins in these tests, tags left out. Where a name states a change or a piece, a line headed by the entry shows the natural chain unless it says otherwise.
UniProt Q9Y4P8: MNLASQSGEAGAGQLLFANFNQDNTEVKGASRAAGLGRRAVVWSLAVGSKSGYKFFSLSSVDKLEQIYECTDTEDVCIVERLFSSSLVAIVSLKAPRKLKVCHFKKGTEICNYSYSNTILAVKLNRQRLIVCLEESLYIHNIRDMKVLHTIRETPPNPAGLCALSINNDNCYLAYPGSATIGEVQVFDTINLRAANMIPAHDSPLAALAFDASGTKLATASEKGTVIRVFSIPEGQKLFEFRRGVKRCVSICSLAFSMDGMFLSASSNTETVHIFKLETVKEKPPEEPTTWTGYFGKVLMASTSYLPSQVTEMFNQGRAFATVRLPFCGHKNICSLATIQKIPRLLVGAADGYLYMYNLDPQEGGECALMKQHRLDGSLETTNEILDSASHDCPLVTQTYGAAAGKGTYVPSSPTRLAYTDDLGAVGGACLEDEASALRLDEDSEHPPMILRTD
UniProt Q9BSU1: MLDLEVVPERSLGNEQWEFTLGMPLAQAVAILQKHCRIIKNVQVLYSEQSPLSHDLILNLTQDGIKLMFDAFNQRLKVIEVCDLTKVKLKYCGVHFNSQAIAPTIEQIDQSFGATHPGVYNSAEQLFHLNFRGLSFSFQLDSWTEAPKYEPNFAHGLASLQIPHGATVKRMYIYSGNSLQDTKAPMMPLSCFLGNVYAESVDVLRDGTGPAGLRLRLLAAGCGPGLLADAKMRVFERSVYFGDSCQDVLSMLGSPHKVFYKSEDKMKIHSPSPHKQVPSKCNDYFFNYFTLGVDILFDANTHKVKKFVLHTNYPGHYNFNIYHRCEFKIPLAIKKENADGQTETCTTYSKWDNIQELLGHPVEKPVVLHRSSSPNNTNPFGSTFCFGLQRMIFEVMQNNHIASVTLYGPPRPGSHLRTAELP

Target: GFP-WIPI2b RERE (R108E/R128E) mutant (UniProt Q9Y4P8)
Assay: co-IP; HEK293 cells transfected with the GFP-tagged bait, lysed after 24 hours in TNTE buffer (20 mM Tris-HCl pH 7.4, 150 mM NaCl, 5 mM EDTA, 0.3% Triton X-100); GFP-TRAP beads 2-3 hours at 4°C, 4 washes; endogenous partners immunoblotted

binding: no binding
Substance: endogenous MYTHO (from UniProt Q9BSU1 1-422)
